System: hSSPN-EGFP myotubes (human sarcospan promoter reporter in C2C12)
Experiment: hSSPN-EGFP reporter myotube assay (high-content imaging)
Assay type: cell-based, murine
Conditions: retest at 5.5 μM, robust strictly standardized mean difference
Procedure: C2C12 immortalized murine myoblasts cultured in growth media consisting of DMEM (Gibco) with 20% Fetal Bovine Serum (Sigma-Aldrich) at 37° C. with 5% CO2 were transfected with the hSSPN-EGFP or hSSPN-Luciferase linearized plasmids using Lipofectamine 3000 Transfection Reagent (Thermo Fisher Scientific). Transfected cells were selected using 800 μg/ml of G418 (Sigma-Aldrich) for 4 weeks to generate stable cell lines expressing reporter protein under control of the human SSPN promoter.
hSSPN-EGFP myoblasts were seeded at 500 cells per well in 50 μl of growth media in 384-well black, clear bottom microplates (Greiner) using a Multidrop 384 (Thermo Fisher Scientific) and incubated for 3 days. Upon reaching confluency, the growth media was replaced with 50 μl of differentiation media consisting of DMEM with 2% horse serum (Sigma-Aldrich) using an EL406 combination washer dispenser (Biotek). At day 2 of differentiation, the media on the cells was aspirated, left with a residual volume of 10 μl, and replaced with 30 μl of fresh differentiation media. 0.5 μl of small molecule in DMSO or DMSO alone (for vehicle and positive control wells) was added to each well using a Biomek Fx (Beckman). To ensure proper mixing of the DMSO, 50 μl of additional differentiation media was added to all wells except the positive control treated wells, which instead received 50 μl of media containing insulin transferrin selenium (ITS, Gibco) to reach a final concentration of 1% ITS. The final concentration of drug in each treated well was 5.5 μM in 0.55% DMSO and 0.55% DMSO for vehicle and positive control treated wells. After 48 hours of incubation, the media was replaced with Fluorobrite DMEM (Gibco) and each plate was imaged using ImageXpress Micro Confocal High Content Imaging System (Molecular Devices). The fluorescent intensity of imaged cells was determined using MetaXpress Analysis software (Molecular Devices). Analysis setting were as follows: top hat (size: 12, filter shape: circle), adaptive threshold (source: top hat, minimum width: 10, maximum width: 800, intensity above local background: 500), filter mask (filter type: minimum area filter, minimum value: 500). […]

| Structure (SMILES) | hSSPN-EGFP SSMD*, Plate 1 | hSSPN-EGFP SSMD*, Plate 2 |
| --- | --- | --- |
| Nc1nc(=O)c2ncn(COCCO)c2[nH]1 [Acyclovir, 2-amino-9-(2-hydroxyethoxymethyl)-3H-purin-6-one] | −0.37 | 0.19 |
| O=c1[nH]c(=O)c2nc3ccccc3nc2[nH]1 [Alloxazine, 1H-benzo[g]pteridine-2,4-dione] | −0.03 | 0.21 |
| COC(=O)N=N/C=C1\C=[N+]([O-])c2ccccc2N1O [Carbodox, methyl N-[(E)-(1-hydroxy-4-oxidoquinoxalin-4-ium-2-ylidene)methyl]iminocarbamate] | 0.21 | 0.43 |
| CCOC(=O)C1=C(C)NC(C)=C(C(=O)OC)C1c1cccc(Cl)c1Cl (stereo not drawn) [Felodipine, 5-O-ethyl 3-O-methyl 4-(2,3-dichlorophenyl)-2,6-dimethyl-1,4-dihydropyridine-3,5-dicarboxylate] | 1.75 | 1.56 |
| O=C1Nc2ccc(I)cc2/C1=C/c1cc(Br)c(O)c(Br)c1 [GW5074, (3Z)-3-[(3,5-dibromo-4-hydroxyphenyl)methylidene]-5-iodo-1H-indol-2-one] | 0.67 | 0.78 |
| CC(C)NCC(O)c1ccc(O)c(O)c1 (stereo not drawn) [Isoproterenol, 4-[1-hydroxy-2-(propan-2-ylamino)ethyl]benzene-1,2-diol] | 0.26 | 0.26 |
| COC(=O)C1=C(C)NC(C)=C(C(=O)OC(C)C)C1c1cccc2nonc12 (stereo not drawn) [Isradipine, 3-O-methyl 5-O-propan-2-yl 4-(2,1,3-benzoxadiazol-4-yl)-2,6-dimethyl-1,4-dihydropyridine-3,5-dicarboxylate] | 1.79 | 1.50 |
| CCOC(=O)C1=C(C)NC(C)=C(C(=O)OCC)C1c1ccccc1/C=C/C(=O)OC(C)(C)C [Lacidipine, diethyl 2,6-dimethyl-4-[2-[(E)-3-[(2-methylpropan-2-yl)oxy]-3-oxoprop-1-enyl]phenyl]-1,4-dihydropyridine-3,5-dicarboxylate] | 0.69 | 1.02 |
| CCCCN1CCCC1CNC(=O)c1cc(C#N)c2ccccc2c1OC (stereo not drawn) [Nafadotride, N-[(1-butylpyrrolidin-2-yl)methyl]-4-cyano-1-methoxynaphthalene-2-carboxamide] | −0.09 | −0.01 |
| C[C@]12CC[C@H]3[C@@H](CCC4=CC(=O)CC[C@@H]43)[C@@H]1CC[C@@H]2O [Nandrolone, (8R,9S,10R,13 S,14S,17S)-17-hydroxy-13-methyl-2,6,7,8,9,10,11,12,14,15,16,17-dodecahydro-1H-cyclopenta[a]phenanthren-3-one] | 0.44 | 0.41 |
| COC(=O)C1=C(C)NC(C)=C(C(=O)OC)C1c1ccccc1[N+](=O)[O-] [Nifedipine, dimethyl 2,6-dimethyl-4-(2-nitrophenyl)-1,4-dihydropyridine-3,5-dicarboxylate] | 0.41 | 0.22 |
| COC(=O)C1=C(C#N)NC(C)=C(C(=O)OC(C)C)C1c1cccc([N+](=O)[O-])c1 (stereo not drawn) [Nilvadipine, 3-O-methyl 5-O-propan-2-yl 2-cyano-6-methyl-4-(3-nitrophenyl)-1,4-dihydropyridine-3,5-dicarboxylate] | 1.08 | 0.97 |
